Consider one substance from patent US7569663.

Chains of the proteins cited; added tags and fusions are not shown. Lines headed by an entry give the natural chain unless they say otherwise; changes in a name come on top. Residues count along the entry.
UniProt P25445, residues 26-335: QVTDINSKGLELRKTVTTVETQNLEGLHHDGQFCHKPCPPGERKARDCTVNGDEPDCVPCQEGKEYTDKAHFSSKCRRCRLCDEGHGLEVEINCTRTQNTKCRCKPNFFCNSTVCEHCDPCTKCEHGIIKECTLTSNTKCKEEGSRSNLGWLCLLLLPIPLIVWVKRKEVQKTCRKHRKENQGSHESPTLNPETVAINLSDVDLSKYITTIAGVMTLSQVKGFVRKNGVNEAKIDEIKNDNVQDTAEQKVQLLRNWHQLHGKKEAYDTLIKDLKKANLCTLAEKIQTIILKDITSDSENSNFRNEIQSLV
UniProt P16410: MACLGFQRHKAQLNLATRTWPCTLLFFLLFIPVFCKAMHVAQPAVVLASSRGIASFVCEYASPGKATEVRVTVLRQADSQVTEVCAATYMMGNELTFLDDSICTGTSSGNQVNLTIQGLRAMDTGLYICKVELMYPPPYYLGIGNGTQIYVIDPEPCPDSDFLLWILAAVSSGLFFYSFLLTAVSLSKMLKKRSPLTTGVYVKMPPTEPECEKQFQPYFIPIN

No constants are given. Whether binding was seen depends on the method and setting. Some entries that bind do so weakly or less than the wild type.

This experiment addresses Fas (CD95) receptor on Jurkat cells (human) (UniProt P25445). Description: flow cytometry on Jurkat cells, detection of CTLA-4 epitopes.

For the substance “CTLA-4•FasL (from UniProt P16410 36-161; P48023 127-281)”, the binding entry is “binds”.
